Test results from PubChem BioAssay AID248 (DTP/NCI, 2004).
The list shows only some results of the screen, not a fair sample: it gathers tests that were run many times, whatever their T/C, doses with no T/C, and many T/C values between a quarter and a half above the control. Other doses and runs of a compound stand elsewhere. T/C is the treated group as % of the vehicle group. Some doses have a count of surviving animals in place of a T/C: the source holds a T/C of zero for them, seemingly a mark for toxic or unscored doses. Some doses without a T/C left all or most animals alive at the check, yet need not have been tolerated: the source hardly ever lists a survival T/C far under the control, and the zero likely stands for such cases as well. Survivors were counted at the toxicity check, usually on the fifth day, unless a day is given; later deaths do not show. Schedules are NCI's codes, read here as Q, the interval in days (D) or hours (H), X, the number of doses. Some schedule codes hold Z or #, which are not explained here. Marks such as (2×) count equal records among those shown. For survival time, this PubChem deposit counts one and a half times the control or more as active, and values a quarter to a half above the control carry no call in these data; other NCI protocols may use other cut-offs.

Tested on: L1210 leukemia ip in BDF1 mice, survival T/C
Assay: NCI In Vivo Anticancer Drug Screen. Data for tumor model L1210 Leukemia (intraperitoneal) in B6D2F1 (BDF1) mice
Details: T/C endpoint: mean survival time, higher T/C = longer survival
[1] = dose: 400.0 mg/kg/injection, schedule: Q01DX001 (ip), vehicle: saline
[2] = dose: 400.0 mg/kg/injection, schedule: Q04DX003 (ip), vehicle: saline with Tween-80
[3] = dose: 200.0 mg/kg/injection, schedule: Q04DX002 (ip), vehicle: saline
[4] = dose: 400.0 mg/kg/injection, schedule: Q04DX002 (ip), vehicle: saline
[5] = dose: 400.0 mg/kg/injection, schedule: Q01DX009 (ip), vehicle: saline with Tween-80
[6] = dose: 300.0 mg/kg/injection, schedule: Q01DX001 (ip), vehicle: carboxymethylcellulose (CMC)
[7] = dose: 100.0 mg/kg/injection, schedule: Q04DX002 (ip), vehicle: saline
[8] = dose: 400.0 mg/kg/injection, schedule: Q01DX009 (ip), vehicle: Klucel (hydroxypropylcellulose) (HPC)

In the case of CN(C)[C@@H]1C(=O)C(C(=O)NCNC2(C(=O)O)CCCC2)=C(O)[C@@]2(O)C(=O)C3=C(O)c4c(O)cccc4[C@@](C)(O)[C@H]3C[C@@H]12, the T/C (dose: 500.0 mg/kg/injection, schedule: Q01DX015 (ip), vehicle: saline) is reported as 138 % of control, the T/C (dose: 500.0 mg/kg/injection, schedule: Q01DX Z (ip), vehicle: saline) is reported as 143 % of control and the survivor count (dose: 1000.0 mg/kg/injection, schedule: Q01DX015 (ip), vehicle: saline) is reported as 2 of 6.
For COC(=O)CNC(=O)C(CC(C)C)NC(=O)OCc1ccccc1 (stereo unspecified), the survivor count [1] was 6 of 6.
CCC(O)C[As](=O)(O)c1ccccc1 (stereo unspecified) was tested, and the survivor count (dose: 25.0 mg/kg/injection, schedule: Q04DX003 (ip), vehicle: saline with Tween-80) was 0 of 6, the survivor count (dose: 50.0 mg/kg/injection, schedule: Q04DX003 (ip), vehicle: saline with Tween-80) was 0 of 6 and the survivor count (dose: 100.0 mg/kg/injection, schedule: Q04DX003 (ip), vehicle: saline with Tween-80) was 0 of 6 (2×). The survivor count (dose: 200.0 mg/kg/injection, schedule: Q04DX003 (ip), vehicle: saline with Tween-80) was 0 of 6 and the survivor count [2] was 0 of 6.
O=C(COc1cccc(Cl)c1)NCc1ccc(NC(=O)CBr)cc1 was tested, and the survivor count (dose: 100.0 mg/kg/injection, schedule: Q01DX001 (ip), vehicle: gum acacia) was 6 of 6.
With O=[N+]([O-])c1ccc(S(=O)(=O)CCCl)cc1 the survivor count (dose: 200.0 mg/kg/injection, schedule: Q01DX009 (ip), vehicle: Klucel (hydroxypropylcellulose) (HPC)) was 0 of 6.
For O=C(Nc1ccc(Cl)cc1C(F)(F)F)Sc1ccc(Cl)cc1, the survivor count (dose: 400.0 mg/kg/injection, schedule: Q01DX009 (ip), vehicle: gum acacia) was 3 of 6.
NC(=O)c1cc2ccccc2[n+](Cc2ccc(F)cc2)c1 was tested, and the survivor count (dose: 150.0 mg/kg/injection, schedule: Q01DX001 (ip), vehicle: saline) was 2 of 6 and the survivor count (dose: 300.0 mg/kg/injection, schedule: Q01DX001 (ip), vehicle: saline) was 1 of 6.
With C[S+](C)C12CC3CC(CC(C3)C1)C2 the survivor count [3] was 0 of 3 and the survivor count [4] was 1 of 3.
CCOc1ccc(NC(=S)NC(=O)c2ccccc2F)cc1 was tested, and the survivor count (dose: 100.0 mg/kg/injection, schedule: Q01DX009 (ip), vehicle: saline with Tween-80) was 6 of 6 and the survivor count [5] was 6 of 6.
In the case of O=c1[nH]nnc2c1cnn2-c1ccccc1, the survivor count (dose: 400.0 mg/kg/injection, schedule: Q01DX001 (ip), vehicle: carboxymethylcellulose (CMC)) is reported as 1 of 4.
Cc1ccc(/C=N/NC(N)=S)nn1 was tested, and the survivor count [4] was 0 of 3.
CC(=O)OCC1OC(n2cnc3c(N)ncnc32)C(OC(C)=O)C1OC(C)=O (stereo unspecified) was tested, and the survivor count (dose: 100.0 mg/kg/injection, schedule: Q01DX001 (ip), vehicle: saline) was 4 of 4 and the survivor count [1] was 1 of 6.
In the case of O=NN(CCO)C(=O)Nc1c[nH]c(=O)[nH]c1=O, the T/C (dose: 100.0 mg/kg/injection, schedule: Q01DX001 (ip), vehicle: carboxymethylcellulose (CMC)) is reported as 133 % of control, the T/C (dose: 200.0 mg/kg/injection, schedule: Q01DX001 (ip), vehicle: carboxymethylcellulose (CMC)) is reported as 133 % of control and the T/C [6] is reported as 146 % of control. For the same compound, the survivor count (dose: 500.0 mg/kg/injection, schedule: Q01DX001 (ip), vehicle: carboxymethylcellulose (CMC)) was 3 of 6, the survivor count (dose: 600.0 mg/kg/injection, schedule: Q01DX001 (ip), vehicle: carboxymethylcellulose (CMC)) was 3 of 6 and the survivor count (dose: 800.0 mg/kg/injection, schedule: Q01DX001 (ip), vehicle: carboxymethylcellulose (CMC)) was 0 of 6. The survivor count (dose: 1000.0 mg/kg/injection, schedule: Q01DX001 (ip), vehicle: carboxymethylcellulose (CMC)) was 1 of 6.
With O=C(O)c1cc(N2CCCC2)ccn1 the survivor count [1] was 0 of 6.
With CCOc1ccc(-c2nnc(Nc3ccc(S(=O)(=O)N4CCCCC4)cc3)s2)cc1 the survivor count (dose: 200.0 mg/kg/injection, schedule: Q01DX009 (ip), vehicle: saline with Tween-80) was 3 of 3 and the survivor count [5] was 3 of 3.
Clc1cc2c(cc1Cl)OB(c1ccccc1)O2 was tested, and the survivor count (dose: 400.0 mg/kg/injection, schedule: Q04DX003 (ip), vehicle: alcohol) was 0 of 6.
In the case of O=C(O)C1=CC2C=C(Cl)C=CC2OC1=O (stereo unspecified), the survivor count [1] is reported as 0 of 6.
For CNC(=O)c1ccc(NC(=O)Nc2ccc(C3=NCCCN3)cc2)cc1NC(=O)Nc1ccc(C2=NCCCN2)cc1, the T/C (dose: 37.0 mg/kg/injection, schedule: Q01DX Z (ip), vehicle: carboxymethylcellulose (CMC)) was 138 % of control, the T/C (dose: 75.0 mg/kg/injection, schedule: Q01DX Z (ip), vehicle: carboxymethylcellulose (CMC)) was 138 % of control and the survivor count (dose: 150.0 mg/kg/injection, schedule: Q01DX Z (ip), vehicle: carboxymethylcellulose (CMC)) was 2 of 6. For the same compound, the survivor count (dose: 200.0 mg/kg/injection, schedule: Q01DX Z (ip), vehicle: carboxymethylcellulose (CMC)) was 0 of 6 and the survivor count (dose: 300.0 mg/kg/injection, schedule: Q01DX Z (ip), vehicle: carboxymethylcellulose (CMC)) was 0 of 6.
Cc1cc(C)c(C[N+](C)(C)C)c(C)c1 was tested, and the survivor count (dose: 200.0 mg/kg/injection, schedule: Q01DX001 (ip), vehicle: saline) was 0 of 4 and the survivor count [1] was 0 of 4.
For O=C(O)c1ccc2c(c1Cl)C(=O)c1ccccc1C2=O, the survivor count [2] was 2 of 6.
With NC1(CSS(=O)(=O)O)CCN1 (stereo unspecified) the survivor count [7] was 0 of 3, the survivor count [3] was 0 of 3 and the survivor count [4] was 0 of 3.
With NC1CCCCC1I (stereo unspecified) the survivor count (dose: 300.0 mg/kg/injection, schedule: Q01DX001 (ip), vehicle: acetone) was 2 of 6.
With CC(C)=NNC(=O)Nc1cccc(C)c1C the survivor count [8] was 0 of 6.
With CCCCCCCCCCCCCCCCCC[N+](C)(C)C the survivor count (dose: 8.0 mg/kg/injection, schedule: Q01DX015 (ip), vehicle: saline) was 3 of 6, the survivor count (dose: 12.5 mg/kg/injection, schedule: Q01DX009 (ip), vehicle: saline) was 2 of 6 and the survivor count (dose: 25.0 mg/kg/injection, schedule: Q04DX003 (ip), vehicle: saline) was 4 of 6. For the same compound, the survivor count (dose: 50.0 mg/kg/injection, schedule: Q04DX003 (ip), vehicle: saline) was 0 of 6.
Nc1ccccc1SC1CC(=O)N(c2ccc(I)cc2)C1=O (stereo unspecified) was tested, and the survivor count (dose: 100.0 mg/kg/injection, schedule: Q04DX003 (ip), vehicle: saline) was 6 of 6.
C/C(CC(C)C)=N/Nc1nc(C)cc(=O)[nH]1 was tested, and the survivor count [8] was 4 of 6.
C/C(=N/N)c1ccccc1O was tested, and the survivor count (dose: 64.0 mg/kg/injection, schedule: Q04DX002 (ip), vehicle: saline) was 0 of 3 and the survivor count [4] was 0 of 3.
With CCOC(=O)C(CC(C)C)NC(=O)CCCCSc1ncnc2nc[nH]c12 (stereo unspecified) the T/C (dose: 800.0 mg/kg/injection, schedule: Q01DX009 (ip), vehicle: saline with Tween-80) was 129 % of control.
In the case of CCCCNc1c(C(=O)OCC)cnc2c1cnn2CC, the survivor count (dose: 150.0 mg/kg/injection, schedule: Q01DX009 (ip), vehicle: Klucel (hydroxypropylcellulose) (HPC)) is reported as 3 of 6 and the survivor count (dose: 300.0 mg/kg/injection, schedule: Q01DX009 (ip), vehicle: Klucel (hydroxypropylcellulose) (HPC)) is reported as 0 of 6.
In the case of Cc1ccc(Nc2cc(N)nc(N)n2)cc1C, the survivor count (dose: 100.0 mg/kg/injection, schedule: Q01DX Z (ip), vehicle: methylcellulose (MC)) is reported as 5 of 6 and the survivor count (dose: 200.0 mg/kg/injection, schedule: Q01DX Z (ip), vehicle: methylcellulose (MC)) is reported as 3 of 6.
For CCOc1ccc2c(ccc(C)[n+]2C)c1, the survivor count [6] was 0 of 6.
For C=CS(=O)Cc1ccccc1 (stereo unspecified), the survivor count (dose: 100.0 mg/kg/injection, schedule: Q04DX002 (ip), vehicle: saline with Tween-80) was 1 of 3, the survivor count (dose: 200.0 mg/kg/injection, schedule: Q04DX002 (ip), vehicle: saline with Tween-80) was 0 of 3 and the survivor count (dose: 400.0 mg/kg/injection, schedule: Q04DX002 (ip), vehicle: saline with Tween-80) was 0 of 3.
For CC(=O)N(C)c1ccc(NC(=O)Nc2c(C)cccc2C)cc1, the T/C [7] was 126 % of control.
Nc1cc(C(=O)Nc2cccc(C3=NCCN3)c2)ccc1C(=O)Nc1cccc(C2=NCCN2)c1 was tested, and the survivor count (dose: 15.0 mg/kg/injection, schedule: Q01DX Z (ip), vehicle: saline) was 0 of 6.
